Measurements as given in PubChem BioAssay AID588497 (NMMLSC, 2011).
Screen size: about 360,000 compounds; about 780 (0.22%) were called active. Inconclusive means that the source gave no clear call. Such entries were picked first, then a sample of the others. Rule as the data show it: active = inhibition above about 35% (passing the limit was not always enough); inconclusive = no clear call, values can overlap the other calls.

Each compound was assayed on Botulinum neurotoxin type F light chain protease (Clostridium botulinum) (assay: BoNT/F light chain protease inhibitors, primary screen, biochemical, flow cytometry, MLPCN library (AID 588497; also: plate controls were buffer without enzyme for full effect and enzyme alone for no effect)). Settings: Multiplex microsphere protease cleavage assay, at 10 µM, hits give high values.

Row | Compound | inhibition
1 | CC(=O)Nc1cccc(OCCCNC(=O)C2CCC2)c1 | inconclusive: 34.9%
2 | CC(=O)N1CCc2cc(S(=O)(=O)NCCC(=O)N3CCN(c4ccccn4)CC3)ccc21 | inactive: 1.8%
3 | CCNC(=O)c1ccccc1NC(=O)C1CC(=O)N(C(C)C)C1 (stereo not drawn) | inconclusive: 23.4%
4 | Cn1cc(C(=O)NCCN2CCN(c3cccc(Cl)c3)CC2)c2c3ccccc3n(C)c2c1=O | inactive: -2.4%
5 | O=C(NC1CCCc2ccccc21)c1cccc(F)c1 (stereo not drawn) | inconclusive: 21.1%
6 | COC(=O)C1C2c3ccccc3C(c3ccccc32)C1(C)C(=O)OC (stereo not drawn) | inactive: 2.9%
7 | CCOc1cc(C2C3=C(CCCC3=O)N(CC(=O)O)C3=C2C(=O)CCC3)ccc1OC | inconclusive: 19.5%
8 | COc1ccc(NC(=O)CCNS(=O)(=O)c2ccccc2F)cc1S(=O)(=O)N1CCOCC1 | inactive: 3.6%
9 | COc1ccccc1N1CCN(S(=O)(=O)c2cc(C(F)(F)F)cc(C(F)(F)F)c2)CC1 | inconclusive: 50.9%
10 | Cc1ccc(OCC(=O)N(C)CC(=O)Nc2ccc(Cl)c(C(F)(F)F)c2)c([N+](=O)[O-])n1 | inactive: -1.8%
11 | O=S(=O)(NCC1CCCO1)c1ccc(Cl)c(C(F)(F)F)c1 (stereo not drawn) | inactive: 4.5%
12 | Cc1cccc(CN2CCN(C(=O)Cc3ccccc3)CC2)c1 | inactive: 18.1%
13 | O=c1[nH]nc(SCCS(=O)(=O)c2ccc(F)cc2)n1-c1ccc2c(c1)OCCO2 | inconclusive: 14.3%
14 | Cc1ccccc1/C=C/c1cccc[n+]1C | inconclusive: 13.8%
15 | Cc1ccc2nc(-c3ccc(N)cc3)sc2c1 | inconclusive: -85.6%
16 | CCOC(=O)C1=C(C)N(CCO)C(=O)NC1c1cccc(O)c1 (stereo not drawn) | inconclusive: -28.9%
17 | Nc1ccc2nc(COc3ccccc3)[nH]c2c1 | inconclusive: -18.2%
18 | CC(C)(C)c1ccc(-n2ncc3c2CCCC3NC(=O)c2ccncc2)cc1 (stereo not drawn) | inactive: -5.9%
19 | O=[N+]([O-])c1cc(CN2CCCCCC2)ccc1O | inconclusive: 15.1%
20 | Cc1c(OC(C)C(=O)NCCCN2CCOCC2)ccc2c3c(c(=O)oc12)CCC3 (stereo not drawn) | inactive: 12.3%

Row | Compound | inhibition
21 | NS(=O)(=O)c1ccc(NC(=O)c2ccc3nccnc3c2)cc1 | inconclusive: -34.5%
22 | O=S(=O)(Oc1ccccc1)c1cccnc1 | inconclusive: 18.2%
23 | CC1CC(C)CN(S(=O)(=O)c2ccc(NC(=O)[C@@H]3CCCN3C(=O)c3cccs3)cc2)C1 (stereo partly drawn) | inactive: -7.3%
24 | O=C(/C=C/c1ccccc1[N+](=O)[O-])N1CCc2ccccc2C1 | inconclusive: -9.4%
25 | CCOC(=O)CN(C(=O)c1snc(C(N)=O)c1N)C(C(=O)NCCC(C)C)c1ccc(F)cc1 (stereo not drawn) | inconclusive: -19.8%
26 | Cc1ncc([N+](=O)[O-])n1S(=O)(=O)c1cc(Br)ccc1Br | inconclusive: -3.3%
27 | CC(=O)N[C@@H](Cc1ccc(OC(F)(F)F)cc1)C(=O)O | inconclusive: 4.2%
28 | CCN(CC)c1ccc2cc(-c3nc4ccccc4[nH]3)c(=O)oc2c1 | active: 59.2%
29 | O=C(Nc1cccc(-c2nnc(-c3ccccc3)o2)c1)c1ccc(Br)o1 | inactive: -4.8%
30 | CC(=O)Cn1nnc(-c2ccc(C(F)(F)F)cc2)n1 | inconclusive: 3.5%
31 | O=C(N/N=C/C=C/c1ccc2c(c1)OCO2)C(O)c1ccccc1 (stereo not drawn) | inconclusive: 79.2%
32 | COc1ccccc1N(C)S(=O)(=O)c1ccc(C(=O)NC(C)(C)C)cc1 | inconclusive: -40.7%
33 | CN(Cc1ccccc1)C(=O)CN(c1ccccc1Cl)S(C)(=O)=O | inconclusive: -22.3%
34 | CC(CNC(=O)c1cccs1)c1ccc([N+](=O)[O-])cc1 (stereo not drawn) | inactive: 1.6%
35 | CCc1ccccc1N(CC(=O)O)S(C)(=O)=O | inconclusive: -12%
36 | CCOC(=O)c1nn(-c2ccc(C)cc2)cc1C(=O)c1ccccc1 | inconclusive: 1.1%
37 | COc1ccccc1N1CCC(N2CCN(CC(C)(C)C)C(CCO)C2)CC1 (stereo not drawn) | inconclusive: 2.7%
38 | CCCCN1C(=O)C(=O)N(CC(=O)c2ccc3c(c2)OCO3)C1=O | inactive: -0.6%
39 | Cc1cc(=O)[nH]c2nnc(-c3ccc(Cl)cc3)n12 | inconclusive: -4.1%
40 | O=C(O)c1cc(-c2ccc(/C=C3/SC(=S)N(Cc4ccccc4)C3=O)o2)ccc1Cl | inactive: 4.1%

Row | Compound | inhibition
41 | O=C(N/N=C/c1ccco1)c1cc(C2CC2)[nH]n1 | inconclusive: -2%
42 | O=C(c1ccco1)N1c2ccccc2Sc2ccccc21 | inconclusive: -18.9%
43 | Cc1ccnc(NC(=O)CCCNC(=O)c2ccc(Cl)cc2)c1 | inconclusive: -4.3%
44 | Cc1ccc(C)c(N(CC(=O)N2CCCC2)S(C)(=O)=O)c1 | inconclusive: 24.4%
45 | CC(C)(C)NC(=O)c1cc2c(ccc3ccccc32)oc1=O | inconclusive: 22.9%
46 | COc1ccc(/C(O)=C2/C(=O)C(=O)N(c3ccccn3)C2c2ccc(F)cc2)cc1 (stereo not drawn) | inactive: -0.1%
47 | O=C(CSc1ccc2nnc(CCNC(=O)c3ccc(F)cc3)n2n1)NCC1CCCO1 (stereo not drawn) | inactive: -8.2%
48 | O=C(Nc1ccc(F)cc1)Nc1ccc(Oc2ncnc3cc(Cl)ccc23)nc1 | inconclusive: 44%
49 | O=C(NN1C(=O)/C(=C/C=C/c2ccco2)SC1=S)c1ccncc1 | inconclusive: -110%
50 | Cc1cccc(C)c1C(=NCCN(C)C)c1ccccc1 | inconclusive: -10.2%
51 | C=CCSC1=C(C#N)C(c2ccccc2C)CC(=O)N1 (stereo not drawn) | inconclusive: -11.2%
52 | Cc1ccc(C(C)C)c(OCCN2CCc3ccccc3C2)c1 | inconclusive: 41.7%
53 | CC(=O)Oc1ccccc1-c1nc(/C=C/c2ccccc2)no1 | inconclusive: 18.9%
54 | C/C(=N\O)C1CC(CC(=O)O)C1(C)C (stereo not drawn) | inconclusive: 10.9%
55 | CCc1c(O)nc(SCC(=O)N2CCc3cc(OC)c(OC)cc3[C@@H]2C)[nH]c1=O | inactive: -3.2%
56 | CCn1c(=S)[nH]c2sc3c(c2c1=O)CCCC3 | inconclusive: -23.8%
57 | O=C(/C=C/c1ccco1)N(Cc1ccc(Cl)cc1)C1CCS(=O)(=O)C1 (stereo not drawn) | inconclusive: -5.6%
58 | CCOC(=O)COc1ccc(Br)cc1/C=C1\SC(N)=NC1=O | inconclusive: 3%

Quoted at random: 2 compounds from above
Row | Compound | inhibition
48 | O=C(Nc1ccc(F)cc1)Nc1ccc(Oc2ncnc3cc(Cl)ccc23)nc1 | inconclusive: 44%
51 | C=CCSC1=C(C#N)C(c2ccccc2C)CC(=O)N1 (stereo not drawn) | inconclusive: -11.2%
